From US9409948 (dated 2016)

test: general procedure: Fmoc solid-phase peptide synthesis; Rink Amide MBHA resin (substitution=0.72 mmol/g, Novabiochem); DIC/HOBt; details: whole synthesis, analytical HPLC, scale of the general procedure 0.0675 mmol

Row | Substance | final HPLC purity [%]
1 | H-Apc-D-1Nal-D-1Nal-Phe-Apc-NH2 | 95
2 | H-Apc-D-1Nal-D-1Nal-Phe-Lys-NH2 | 99
3 | H-Apc-D-1Nal-D-2Nal-Phe-Apc-NH2 | 96
4 | H-Apc-D-1Nal-D-Trp-2Thi-Apc-NH2 | 97
5 | H-Apc-D-1Nal-D-Trp-2Thi-Lys-NH2 | 99
6 | H-Apc-D-1Nal-D-Trp-2Thi-NH2 | 98
7 | H-Apc-D-1Nal-D-Trp-Phe-Apc-NH2 | 98
8 | H-Apc-D-1Nal-D-Trp-Phe-Lys-NH2 | 98
9 | H-Apc-D-1Nal-D-Trp-Phe-NH2 | 99
10 | H-Apc-D-1Nal-D-Trp-Taz-Apc-NH2 | 99
11 | H-Apc-D-1Nal-D-Trp-Taz-Lys-NH2 | 99
12 | H-Apc-D-1Nal-D-Trp-Taz-NH2 | 99
13 | H-Apc-D-2Nal-D-Trp-2Thi-NH2 | 95
14 | H-Apc-D-2Nal-D-Trp-Phe-Lys-NH2 | 98
15 | H-Apc-D-2Nal-D-Trp-Taz-NH2 | 97
16 | H-Apc-D-Bal-D-1Nal-Phe-Apc-NH2 | 96
17 | H-Apc-D-Bal-D-1Nal-Phe-Lys-NH2 | 99
18 | H-Apc-D-Bal-D-2Nal-Phe-Apc-NH2 | 94
19 | H-Apc-D-Bal-D-2Nal-Phe-Lys-NH2 | 98
20 | H-Apc-D-Bal-D-Trp-2Thi-Apc-NH2 | 98
21 | H-Apc-D-Bal-D-Trp-2Thi-Lys-NH2 | 98
22 | H-Apc-D-Bal-D-Trp-2Thi-NH2 | 97

Row | Substance | final HPLC purity [%]
23 | H-Apc-D-Bal-D-Trp-Phe-Apc-NH2 | 98
24 | H-Apc-D-Bal-D-Trp-Phe-Lys-NH2 | 99
25 | H-Apc-D-Bal-D-Trp-Phe-NH2 | 99
26 | H-Apc-D-Bal-D-Trp-Taz-Apc-NH2 | 98
27 | H-Apc-D-Bal-D-Trp-Taz-Lys-NH2 | 99
28 | H-Apc-D-Bal-D-Trp-Taz-NH2 | 99
29 | H-Inp-D-1Nal-D-Trp-2Thi-Apc-NH2 | 97
30 | H-Inp-D-1Nal-D-Trp-2Thi-Lys-NH2 | 99
31 | H-Inp-D-1Nal-D-Trp-2Thi-NH2 | 98
32 | H-Inp-D-1Nal-D-Trp-3Pal-Lys-NH2 | 96
33 | H-Inp-D-1Nal-D-Trp-3Pal-NH2 | 98
34 | H-Inp-D-1Nal-D-Trp-Phe-Apc-NH2 | 98
35 | H-Inp-D-1Nal-D-Trp-Taz-Apc-NH2 | 98
36 | H-Inp-D-1Nal-D-Trp-Taz-Lys-NH2 | 99
37 | H-Inp-D-2Nal-D-Bal-Phe-NH2 | 99
38 | H-Inp-D-2Nal-D-Bpa-Phe-Lys-NH2 | 99
39 | H-Inp-D-2Nal-D-Dip-Phe-NH2 | 99
40 | H-Inp-D-2Nal-D-Trp-2Thi-NH2 | 99
41 | H-Inp-D-2Nal-D-Trp-3Pal-Lys-NH2 | 97
42 | H-Inp-D-2Nal-D-Trp-3Pal-NH2 | 99
43 | H-Inp-D-2Nal-D-Trp-4Pal-Lys-NH2 | 99
44 | H-Inp-D-2Nal-D-Trp-4Pal-NH2 | 98

Row | Substance | final HPLC purity [%]
45 | H-Inp-D-2Nal-D-Trp-Orn-Lys-NH2 | 98
46 | H-Inp-D-2Nal-D-Trp-Pff-Lys-NH2 | 98
47 | H-Inp-D-2Nal-D-Trp-Pff-NH2 | 99
48 | H-Inp-D-2Nal-D-Trp-Phe-Apc-NH2 | 98
49 | H-Inp-D-2Nal-D-Trp-Taz-Lys-NH2 | 97
50 | H-Inp-D-2Nal-D-Trp-Taz-NH2 | 98
51 | H-Inp-D-2Nal-D-Trp-Thi-Lys-NH2 | 98
52 | H-Inp-D-2Nal-D-Trp-Thr(Bzl)-Lys-NH2 | 98
53 | H-Inp-D-2Nal-D-Trp-Thr(Bzl)-NH2 | 99
54 | H-Inp-D-Bal-D-Trp-2Thi-Apc-NH2 | 97
55 | H-Inp-D-Bal-D-Trp-2Thi-Lys-NH2 | 99
56 | H-Inp-D-Bal-D-Trp-Phe-Apc-NH2 | 97
57 | H-Inp-D-Bal-D-Trp-Phe-Lys-NH2 | 99
58 | H-Inp-D-Bal-D-Trp-Phe-NH2 | 97
59 | H-Inp-D-Bal-D-Trp-Taz-Apc-NH2 | 99
60 | H-Inp-D-Bal-D-Trp-Taz-Lys-NH2 | 99
61 | H-Inp-D-Bip-D-Trp-Phe-Lys-NH2 | 99
62 | H-Inp-D-Bip-D-Trp-Phe-NH2 | 99
63 | H-Inp-D-Bpa-D-Trp-Phe-Lys-NH2 | 95
64 | H-Inp-D-Dip-D-Trp-Phe-Lys-NH2 | 98
65 | H-Inp-D-Dip-D-Trp-Phe-NH2 | 98
